According to article PMC11199634:
Results are given in words; binding and its absence hold for the method and conditions named. In cells and extracts the contact can be indirect. Some results given as binding are weak or reduced against the parent protein; the word gives no strength. For some assays here: Tags and fused reporters may be left off the sequences shown. One block for each binder: values may come before it.

The chains behind the UniProt entries cited, without tags or fusion partners.
UniProt P36873: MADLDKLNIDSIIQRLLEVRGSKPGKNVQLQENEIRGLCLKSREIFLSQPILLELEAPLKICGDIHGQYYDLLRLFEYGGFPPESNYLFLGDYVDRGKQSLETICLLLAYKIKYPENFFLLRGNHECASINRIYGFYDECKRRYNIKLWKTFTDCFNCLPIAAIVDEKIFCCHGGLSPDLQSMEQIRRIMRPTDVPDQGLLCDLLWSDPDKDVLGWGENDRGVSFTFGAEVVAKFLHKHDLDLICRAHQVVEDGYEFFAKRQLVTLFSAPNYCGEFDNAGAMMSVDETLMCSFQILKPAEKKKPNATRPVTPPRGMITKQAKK

What was measured:
[1] = molecular target: mClover-PP1-WT (UniProt P36873); assay: co-IP; mClover-trap of mClover-PP1 fusions from HeLa FlpIn T-REx cell lines induced 24 h with Dox; endogenous SDS22 and I3 by immunoblot
[2] = molecular target: Strep-PP1γ (UniProt P36873); assay: co-IP; Strep-trap of nascent Strep-PP1γ (HeLa FlpIn T-REx, Dox 1 h); control cells and cells after knockdown of I3
[3] = molecular target: T1, EGFP-I3-(1–84) (human) (UniProt O60927); assay: co-IP; EGFP-trap (anti-EGFP nanobodies on agarose, 2 h, 4 °C) of transiently expressed EGFP fusions from HEK293T lysates (20 mM Tris pH 7.9, 0.3 M NaCl, 0.5% Triton X-100); endogenous partners by immunoblot
T1 sequence: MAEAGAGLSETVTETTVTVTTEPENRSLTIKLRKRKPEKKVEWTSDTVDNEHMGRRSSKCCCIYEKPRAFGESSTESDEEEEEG

[4] = molecular target: T2, EGFP-I3-WT (human) (UniProt O60927); assay: as above
T2 sequence: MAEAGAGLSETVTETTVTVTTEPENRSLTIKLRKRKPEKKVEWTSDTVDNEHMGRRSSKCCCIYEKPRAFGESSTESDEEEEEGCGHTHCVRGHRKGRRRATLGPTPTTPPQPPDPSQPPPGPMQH

[5] = molecular target: Strep-PP1γ (UniProt P36873); assay: co-IP; transiently expressed EGFP-SDS22 variants co-precipitated with Strep-PP1γ induced with Dox for 0 to 24 h in HeLa FlpIn T-REx cells

binding [1]: binds | binding [2]: binds
B1: SDS22 (endogenous, HeLa) (protein, UniProt Q15435 1-360)
chain: MAAERGAGQQQSQEMMEVDRRVESEESGDEEGKKHSSGIVADLSEQSLKDGEERGEEDPEEEHELPVDMETINLDRDAEDVDLNHYRIGKIEGFEVLKKVKTLCLRQNLIKCIENLEELQSLRELDLYDNQIKKIENLEALTELEILDISFNLLRNIEGVDKLTRLKKLFLVNNKISKIENLSNLHQLQMLELGSNRIRAIENIDTLTNLESLFLGKNKITKLQNLDALTNLTVLSMQSNRLTKIEGLQNLVNLRELYLSHNGIEVIEGLENNNKLTMLDIASNRIKKIENISHLTELQEFWMNDNLLESWSDLDELKGARSLETVYLERNPLQKDPQYRRKVMLALPSVRQIDATFVRF

binding [3]: binds | binding [4]: binds
B2: SDS22 (endogenous, HEK293T) (protein, UniProt Q15435 1-360)
chain: MAAERGAGQQQSQEMMEVDRRVESEESGDEEGKKHSSGIVADLSEQSLKDGEERGEEDPEEEHELPVDMETINLDRDAEDVDLNHYRIGKIEGFEVLKKVKTLCLRQNLIKCIENLEELQSLRELDLYDNQIKKIENLEALTELEILDISFNLLRNIEGVDKLTRLKKLFLVNNKISKIENLSNLHQLQMLELGSNRIRAIENIDTLTNLESLFLGKNKITKLQNLDALTNLTVLSMQSNRLTKIEGLQNLVNLRELYLSHNGIEVIEGLENNNKLTMLDIASNRIKKIENISHLTELQEFWMNDNLLESWSDLDELKGARSLETVYLERNPLQKDPQYRRKVMLALPSVRQIDATFVRF

binding [5]: binds weakly
B3: EGFP-tagged SDS22-WT (in HeLa) (protein, UniProt Q15435 1-360)
chain: MAAERGAGQQQSQEMMEVDRRVESEESGDEEGKKHSSGIVADLSEQSLKDGEERGEEDPEEEHELPVDMETINLDRDAEDVDLNHYRIGKIEGFEVLKKVKTLCLRQNLIKCIENLEELQSLRELDLYDNQIKKIENLEALTELEILDISFNLLRNIEGVDKLTRLKKLFLVNNKISKIENLSNLHQLQMLELGSNRIRAIENIDTLTNLESLFLGKNKITKLQNLDALTNLTVLSMQSNRLTKIEGLQNLVNLRELYLSHNGIEVIEGLENNNKLTMLDIASNRIKKIENISHLTELQEFWMNDNLLESWSDLDELKGARSLETVYLERNPLQKDPQYRRKVMLALPSVRQIDATFVRF
